Data from PMC11602438.

Biological target: T1, YggS (E. coli PLP-BP), wild type (Escherichia coli) (UniProt P67080)
T1 sequence (looked up, limits assumed): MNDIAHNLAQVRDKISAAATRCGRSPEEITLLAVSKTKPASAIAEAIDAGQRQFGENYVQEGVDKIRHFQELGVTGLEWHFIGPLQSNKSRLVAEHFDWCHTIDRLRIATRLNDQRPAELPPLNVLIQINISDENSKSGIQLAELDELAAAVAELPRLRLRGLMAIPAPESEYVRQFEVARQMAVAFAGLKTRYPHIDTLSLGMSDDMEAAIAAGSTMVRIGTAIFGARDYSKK
Test: EMSA
Details: PLP added (holo-form); REMSA with fixed RNA: 10 mM HEPES pH 7.3, 10 mM KCl, 1 mM MgCl2, 1 mM DTT, 5% glycerol, RT 30 min; 5% native PAGE, 0.5x TBE; recombinant protein; protein details: N-terminal 6xHis (pET28); probe letters rebuilt from the primers and the genome

GGGUGGUAACAGUCCGUGGCACGGUAAACUCCACCCGGAGCAAGGCCAAAUAGGGGUUCAUAAGGUACGGCCCGUACUGAACCCGGGUAGGCUGCUUGAGCCAGUGAGCGAUUGCUGGCCUAGAUGAAUGACUGUCCACGACAGAACCCGG [RnpB RNA fragment (210-357)]
binding result: binds more weakly

GGGUCGCGUGGAAGCCCUGCCUGGGGUUGAAGCGUUAAAACUUAAUCAGGCUAGUUUGUUAGUGGCGUGUCCGUCCGCAGCUGGCAAGCGAAUGUAAAGACUGACUAAGCAUGUAGUACCGAGG [SsrA RNA fragment (198-318)]
binding result: binds more weakly

For at least one entry, the source does not settle the construct or the ends of the probe. Weaker means in comparison with the reference protein, sequence or condition of that experiment. Protein sequences can lack the tags named with them.
